Experimental findings from the supplement of paper PMC3334620 are described below.

The full ranking holds about 33,000 sequences; the median of “E-score (-0.5 to 0.5)” is about -8e-05, and the highest 2% start at about 0.23. This is one part of the list.

This assay addresses T1, Nrg2 (UniProt P38082).
T1 sequence: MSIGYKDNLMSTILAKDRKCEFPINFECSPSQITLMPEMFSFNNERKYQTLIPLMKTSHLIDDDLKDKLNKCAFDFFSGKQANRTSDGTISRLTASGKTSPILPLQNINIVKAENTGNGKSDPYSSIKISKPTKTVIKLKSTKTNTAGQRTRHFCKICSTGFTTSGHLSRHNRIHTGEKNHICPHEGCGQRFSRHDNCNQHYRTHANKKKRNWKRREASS
Briefly: PBM E-score (8-mer binding enrichment) (E-score (-0.5 to 0.5)); higher = stronger / more preferred TF binding. Conditions: protein concentration: 100 nM; construct: GST-full length. An outline of the steps:
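Universal all-10-mer Agilent arrays, double-stranded by primer extension on fresh or once-stripped slides, were probed with about 100-200 nM GST-tagged yeast transcription factors made by PURExpress. Fluorescent anti-GST detected bound protein, and masliner normalised the scans. E-scores from the Universal PBM Analysis Suite were given to each ungapped eight-base word pooled with its reverse complement.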
For CCCCGCGA, the “PBM E-score” value is 0.0863.

As to ATAGCCCA, the “PBM E-score” value was 0.0729.

Take CAATTTGA: the “PBM E-score” value worked out at 0.0984.

With TACAACGA, the “PBM E-score” value stood at 0.0238.

CGGAGGTC: the “PBM E-score” value is -0.00667.

As for ACACGCTG, the “PBM E-score” value is -0.109.

Consider CGAAACCC, for which the “PBM E-score” value was determined as 0.103.

Consider ATAAGCTC, for which the “PBM E-score” value is -0.0927.

As to ACTTCGCT, the “PBM E-score” value was 0.0287.

With CATAGTTA, the “PBM E-score” value was -0.0635.

As to CTGTCGGC, the “PBM E-score” value is -0.0375.

AGCGTGGC: the “PBM E-score” value was determined as 0.0396.

In the case of AATCTATG, the “PBM E-score” value is 0.0819.

GATTTGAC: the “PBM E-score” value is 0.0597.

Consider CCAGCTGC, for which the “PBM E-score” value was -0.0958.

Regarding TATGGTGA, the “PBM E-score” value is -0.0798.

Turning to CGATCCCG, the “PBM E-score” value was -0.0843.

For the sequence CTCCGCCA, the “PBM E-score” value is -0.0925.

Consider GAGGGGCC, for which the “PBM E-score” value was -0.0201.

In the case of AATATACT, the “PBM E-score” value turned out to be 0.0619.

For the sequence AGTAGTAG, the “PBM E-score” value is -0.0615.

CCTTACAA: the “PBM E-score” value was -0.0884.

ACTTGCCC: the “PBM E-score” value is -0.0844.

As for GGGACCAA, the “PBM E-score” value was 0.138.

Turning to GCTCAGCC, the “PBM E-score” value is -0.191.

With AAGGATTC, the “PBM E-score” value is -0.124.

In the case of CAAACTAA, the “PBM E-score” value was found to be 0.184.

As to ACCTTCCC, the “PBM E-score” value was -0.156.

On to CTAGCACC, for which the “PBM E-score” value was 0.0733.

For the sequence AAGTTCAG, the “PBM E-score” value was -0.0274.

For AGCACTTG, the “PBM E-score” value was -0.164.

Regarding GACTGGTA, the “PBM E-score” value is 0.0862.

On to AAACGCAG, for which the “PBM E-score” value was -0.0508.

With AGTTAAGA, the “PBM E-score” value turned out to be 0.0745.

Take CGCTGACC: the “PBM E-score” value was determined as 0.0434.

For the sequence GACCATAC, the “PBM E-score” value is -0.125.

Regarding GGCGACCC, the “PBM E-score” value is -0.0112.

With ACGTTGGC, the “PBM E-score” value was -0.247.

Consider CGTATTGC, for which the “PBM E-score” value is -0.0307.

On to AGCAGAAC, for which the “PBM E-score” value amounted to 0.0196.

Consider CGGGAATA, for which the “PBM E-score” value is 0.0776.

In the case of GGGGTTAC, the “PBM E-score” value is -0.296.

Turning to CTTGGACC, the “PBM E-score” value was -0.0417.

As for AGTCGTGA, the “PBM E-score” value is -0.076.

As to CGGGCGAC, the “PBM E-score” value is -0.278.

Take CTATGTGC: the “PBM E-score” value came out at 0.0174.

On to ACTAGAGA, for which the “PBM E-score” value is -0.127.

As to AGCATGCG, the “PBM E-score” value was determined as 0.00586.

Take CCGGTCTC: the “PBM E-score” value was -0.13.

AGTACTCA: the “PBM E-score” value was -0.0331.

As for CCGGGATA, the “PBM E-score” value was -0.0524.

In the case of CGCCGTCC, the “PBM E-score” value was -0.138.

Regarding GGGGGTTA, the “PBM E-score” value was -0.432.

Take GTACCGGA: the “PBM E-score” value was found to be 0.0409.

ACAAGGAA: the “PBM E-score” value worked out at 0.0647.

CTACTATA: the “PBM E-score” value is 0.143.

On to GCGCGCAA, for which the “PBM E-score” value came out at 0.201.

On to AAGTTGGT, for which the “PBM E-score” value was 0.136.

In the case of ACAATCCC, the “PBM E-score” value is 0.0851.

CAAGTGTA: the “PBM E-score” value was -0.0141.

On to GGGACATA, for which the “PBM E-score” value worked out at 0.193.

Take CCTTGTCG: the “PBM E-score” value was -0.0281.

On to ATCTCATG, for which the “PBM E-score” value was 0.0868.

As to AGGGCTCC, the “PBM E-score” value is -0.233.

Regarding AACTCAAG, the “PBM E-score” value was -0.0395.

On to CGAAAGCG, for which the “PBM E-score” value is -0.178.

For the sequence ACTTGGCG, the “PBM E-score” value was -0.138.

As for GCGACCCC, the “PBM E-score” value is -0.0239.

Consider AGTTGGTA, for which the “PBM E-score” value came to 0.0995.

As for AAGAATAG, the “PBM E-score” value was -0.0208.

Regarding AATGGAAC, the “PBM E-score” value is 0.108.

As for ACCAGAGC, the “PBM E-score” value was -0.00553.

As to CTACATGC, the “PBM E-score” value is -0.0136.

AAGGAGCT: the “PBM E-score” value was -0.368.

With GTCGTATA, the “PBM E-score” value is 0.00175.

Take ACGGCAAG: the “PBM E-score” value turned out to be 0.0648.

As to CCAGACGA, the “PBM E-score” value was found to be 0.0228.

ATCTGGCA: the “PBM E-score” value is -0.0821.

ACTTGGAA: the “PBM E-score” value was -0.0605.

Consider AATGCCAC, for which the “PBM E-score” value was determined as 0.00346.

Regarding GCAAAGAC, the “PBM E-score” value was -0.0856.

For the sequence AACAGACG, the “PBM E-score” value is -0.0618.

For the sequence AAACTTCG, the “PBM E-score” value was 0.0808.

With GCATTCAC, the “PBM E-score” value is 0.0117.

As for ACATCGGC, the “PBM E-score” value is 0.0304.

For the sequence AAGAATAA, the “PBM E-score” value is -0.022.
